Experimental data: PubChem BioAssay AID743454 (Peter MacCallum Cancer Centre, 2014)

Assay: 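Genes whose loss kills vorinostat-resistant colon cancer cells under vorinostat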 (primary screen)
System: human HCT116-VR colon cancer cells, selected for vorinostat resistance
Reagents: siRNA pool against human genes, 40 nM siRNA pool
Time to read-out: vorinostat for 24 h, read-out about 72 h after transfection
Conditions: vorinostat at 2.5 µM final
Detection: 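Two measures, CellTiter-Fluor viability and luminescent caspase 3/7 activity, each as fold change against same-plate mock wells, mean of duplicates, then screen-wide robust z-score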
Reading the numbers: viability robust z-score: higher = more viable cells than screen typical; caspase robust z-score: higher = more caspase 3/7 activity than screen typical
Call rule: 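Hits are knock-downs in viability class RV1/RV2 or caspase class CA1/CA2, excluding ones that killed cells in the no-drug cell-count arm; hits then retested with single siRNAs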
This is a random part of about 18,000 reagents. 450 of all reagents (2.5%) were called active. 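Single biological run; no consistent viability z cut-off exists, so the class columns, not z-scores, define the calls.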

For TGM7 (GeneID 116179), what was measured?
viability hit class: no change; caspase hit class: no change; viability robust z-score: -0.84; caspase robust z-score: 3.34; outcome: inactive

For IRX3 (GeneID 79191), what does the deposit list?
viability hit class: no change; caspase hit class: no change; viability robust z-score: -0.82; caspase robust z-score: 0.46; outcome: inactive

What is on record for DNM2 (GeneID 1785)?
viability hit class: no change; caspase hit class: no change; viability robust z-score: 1.27; caspase robust z-score: 2.23; outcome: inactive

With GPR137B (GeneID 7107), how do the results read?
viability hit class: no change; caspase hit class: no change; viability robust z-score: -0.1; caspase robust z-score: -0.75; outcome: inactive

With RRP15 (GeneID 51018), what does the deposit list?
viability hit class: no change; caspase hit class: no change; viability robust z-score: -1.14; caspase robust z-score: -0.14; outcome: inactive

Which result is listed for TGM5 (GeneID 9333)?
viability hit class: no change; caspase hit class: CA1 (caspase activation); viability robust z-score: -1.9; caspase robust z-score: 5.52; outcome: active

With POLB (GeneID 5423), what was measured?
viability hit class: no change; caspase hit class: no change; viability robust z-score: 1; caspase robust z-score: -0.59; outcome: inactive

With POC1B (GeneID 282809), what does the deposit list?
viability hit class: no change; caspase hit class: no change; viability robust z-score: 0.07; caspase robust z-score: -0.5; outcome: inactive

Which result is listed for RGS13 (GeneID 6003)?
viability hit class: no change; caspase hit class: no change; viability robust z-score: -0.3; caspase robust z-score: -0.73; outcome: inactive

With PNLIPRP2 (GeneID 5408), how do the results read?
viability hit class: no change; caspase hit class: no change; viability robust z-score: 0.94; caspase robust z-score: 2.4; outcome: inactive

For GOLT1B (GeneID 51026), what does the deposit list?
viability hit class: no change; caspase hit class: no change; viability robust z-score: 0.11; caspase robust z-score: -0.78; outcome: inactive

With HDAC1 (GeneID 3065), what was measured?
viability hit class: no change; caspase hit class: no change; viability robust z-score: 0.6; caspase robust z-score: 0.57; outcome: inactive

What did the screen give for RAPGEF5 (GeneID 9771)?
viability hit class: no change; caspase hit class: no change; viability robust z-score: -0.17; caspase robust z-score: -0.57; outcome: inactive

For GABPB2 (GeneID 126626), what does the deposit list?
viability hit class: no change; caspase hit class: no change; viability robust z-score: -0.42; caspase robust z-score: 0.38; outcome: inactive

Quoted from the entries so far (2 entries):
GOLT1B (GeneID 51026): viability hit class = no change; caspase hit class = no change; viability robust z-score = 0.11; caspase robust z-score = -0.78; outcome = inactive
HDAC1 (GeneID 3065): viability hit class = no change; caspase hit class = no change; viability robust z-score = 0.6; caspase robust z-score = 0.57; outcome = inactive
